The other results are listed elsewhere or left out.
The targets below were run with COc1cc2nc(-c3cc(F)ccc3O)nc(N[C@@H]3CNC[C@H]3C(C)(C)O)c2cc1OC (assay: log2 fold change, soluble protein after heating vs DMSO (PISA); higher = thermal stabilisation; K562 cells, 10 uM, 30 min; active = over 0.2 and 3.5 SD of the protein, either way, in both replicates (recomputed)).
Outline: (§1)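 Soluble protein was quantified by TMTpro 16plex LC-MS/MS after channel sums were equalised. It was obtained as the supernatant after 21,000xg for 90 min from pooled aliquots of K562 cells (2×10^6 cells/mL, 10 μM compound, 30 min) heated for 3 min across 48°C-58°C and extracted in PBS with 0.5% NP-40 at 4°C. Thermal stability values are relative to control samples and come from duplicates. They are given as log2 fold changes.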

Chains of the proteins cited; added tags and fusions are not shown. Lines headed by an entry give the natural chain unless they say otherwise; changes in a name come on top.
UniProt Q15643: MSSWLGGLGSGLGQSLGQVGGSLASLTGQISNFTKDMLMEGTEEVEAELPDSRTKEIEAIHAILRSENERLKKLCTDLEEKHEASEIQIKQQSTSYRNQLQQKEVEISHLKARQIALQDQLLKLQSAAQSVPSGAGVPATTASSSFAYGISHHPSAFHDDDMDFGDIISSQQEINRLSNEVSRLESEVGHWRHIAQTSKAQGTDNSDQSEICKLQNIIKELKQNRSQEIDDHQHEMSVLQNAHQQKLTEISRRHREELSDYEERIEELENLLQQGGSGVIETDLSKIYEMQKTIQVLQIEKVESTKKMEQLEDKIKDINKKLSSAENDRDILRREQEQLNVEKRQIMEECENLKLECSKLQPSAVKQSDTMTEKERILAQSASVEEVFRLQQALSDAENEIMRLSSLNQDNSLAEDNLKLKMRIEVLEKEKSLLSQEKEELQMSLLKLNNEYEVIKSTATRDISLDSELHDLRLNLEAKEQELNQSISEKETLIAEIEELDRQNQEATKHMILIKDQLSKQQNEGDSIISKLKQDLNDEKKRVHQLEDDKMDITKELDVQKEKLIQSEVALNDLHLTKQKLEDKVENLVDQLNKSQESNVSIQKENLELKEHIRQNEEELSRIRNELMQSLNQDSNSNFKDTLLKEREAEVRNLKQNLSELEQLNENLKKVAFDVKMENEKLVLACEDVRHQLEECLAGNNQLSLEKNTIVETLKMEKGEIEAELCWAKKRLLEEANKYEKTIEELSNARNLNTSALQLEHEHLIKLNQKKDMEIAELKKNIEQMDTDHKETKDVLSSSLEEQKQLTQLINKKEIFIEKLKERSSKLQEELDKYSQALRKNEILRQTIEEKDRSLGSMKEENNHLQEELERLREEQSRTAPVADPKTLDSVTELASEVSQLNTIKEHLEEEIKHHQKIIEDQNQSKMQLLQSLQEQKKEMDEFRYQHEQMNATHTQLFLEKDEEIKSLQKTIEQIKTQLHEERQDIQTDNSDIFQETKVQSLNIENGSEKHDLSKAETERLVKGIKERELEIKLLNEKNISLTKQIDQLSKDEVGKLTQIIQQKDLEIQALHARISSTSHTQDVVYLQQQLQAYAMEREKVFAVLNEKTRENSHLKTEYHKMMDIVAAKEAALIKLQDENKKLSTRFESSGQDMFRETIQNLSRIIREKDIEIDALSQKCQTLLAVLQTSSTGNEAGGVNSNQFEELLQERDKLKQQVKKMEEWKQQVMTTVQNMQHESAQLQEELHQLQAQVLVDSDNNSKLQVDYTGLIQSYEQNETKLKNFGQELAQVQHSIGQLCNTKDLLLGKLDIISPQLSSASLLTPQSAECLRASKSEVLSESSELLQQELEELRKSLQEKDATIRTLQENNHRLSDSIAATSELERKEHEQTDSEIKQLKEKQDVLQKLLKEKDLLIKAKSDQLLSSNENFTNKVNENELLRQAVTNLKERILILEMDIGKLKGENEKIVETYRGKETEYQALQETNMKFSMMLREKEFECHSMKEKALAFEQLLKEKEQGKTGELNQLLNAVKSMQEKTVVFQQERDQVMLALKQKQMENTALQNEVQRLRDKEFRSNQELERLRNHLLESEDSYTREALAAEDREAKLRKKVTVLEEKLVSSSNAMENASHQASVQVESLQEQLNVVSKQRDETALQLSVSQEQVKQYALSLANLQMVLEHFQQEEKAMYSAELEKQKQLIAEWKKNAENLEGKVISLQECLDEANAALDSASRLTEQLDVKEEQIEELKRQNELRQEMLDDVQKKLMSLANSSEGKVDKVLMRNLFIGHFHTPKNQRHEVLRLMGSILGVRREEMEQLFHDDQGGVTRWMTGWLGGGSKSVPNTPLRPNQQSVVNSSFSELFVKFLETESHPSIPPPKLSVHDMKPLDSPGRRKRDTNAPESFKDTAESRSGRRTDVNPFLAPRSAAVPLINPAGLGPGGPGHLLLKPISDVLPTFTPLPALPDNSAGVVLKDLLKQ
UniProt Q9C037: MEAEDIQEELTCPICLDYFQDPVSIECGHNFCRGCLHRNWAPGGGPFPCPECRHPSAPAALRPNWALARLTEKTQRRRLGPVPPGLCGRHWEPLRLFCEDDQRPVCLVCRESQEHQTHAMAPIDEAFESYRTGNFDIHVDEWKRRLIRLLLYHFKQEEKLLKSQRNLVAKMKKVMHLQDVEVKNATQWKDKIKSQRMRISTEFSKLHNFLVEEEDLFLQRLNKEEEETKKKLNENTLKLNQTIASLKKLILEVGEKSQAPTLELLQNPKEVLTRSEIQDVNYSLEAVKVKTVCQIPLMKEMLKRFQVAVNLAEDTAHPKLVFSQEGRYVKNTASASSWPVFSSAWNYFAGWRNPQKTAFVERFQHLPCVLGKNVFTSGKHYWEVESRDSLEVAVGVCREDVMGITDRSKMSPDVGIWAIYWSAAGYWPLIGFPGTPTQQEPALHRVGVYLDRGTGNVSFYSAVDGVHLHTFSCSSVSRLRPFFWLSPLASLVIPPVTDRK
UniProt Q9Y5R8, whole entry, looked up: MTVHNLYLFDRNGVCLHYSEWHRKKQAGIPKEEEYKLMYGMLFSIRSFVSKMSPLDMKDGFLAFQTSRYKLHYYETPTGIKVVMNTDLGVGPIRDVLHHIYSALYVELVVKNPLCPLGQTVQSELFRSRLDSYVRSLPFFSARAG
UniProt Q12888: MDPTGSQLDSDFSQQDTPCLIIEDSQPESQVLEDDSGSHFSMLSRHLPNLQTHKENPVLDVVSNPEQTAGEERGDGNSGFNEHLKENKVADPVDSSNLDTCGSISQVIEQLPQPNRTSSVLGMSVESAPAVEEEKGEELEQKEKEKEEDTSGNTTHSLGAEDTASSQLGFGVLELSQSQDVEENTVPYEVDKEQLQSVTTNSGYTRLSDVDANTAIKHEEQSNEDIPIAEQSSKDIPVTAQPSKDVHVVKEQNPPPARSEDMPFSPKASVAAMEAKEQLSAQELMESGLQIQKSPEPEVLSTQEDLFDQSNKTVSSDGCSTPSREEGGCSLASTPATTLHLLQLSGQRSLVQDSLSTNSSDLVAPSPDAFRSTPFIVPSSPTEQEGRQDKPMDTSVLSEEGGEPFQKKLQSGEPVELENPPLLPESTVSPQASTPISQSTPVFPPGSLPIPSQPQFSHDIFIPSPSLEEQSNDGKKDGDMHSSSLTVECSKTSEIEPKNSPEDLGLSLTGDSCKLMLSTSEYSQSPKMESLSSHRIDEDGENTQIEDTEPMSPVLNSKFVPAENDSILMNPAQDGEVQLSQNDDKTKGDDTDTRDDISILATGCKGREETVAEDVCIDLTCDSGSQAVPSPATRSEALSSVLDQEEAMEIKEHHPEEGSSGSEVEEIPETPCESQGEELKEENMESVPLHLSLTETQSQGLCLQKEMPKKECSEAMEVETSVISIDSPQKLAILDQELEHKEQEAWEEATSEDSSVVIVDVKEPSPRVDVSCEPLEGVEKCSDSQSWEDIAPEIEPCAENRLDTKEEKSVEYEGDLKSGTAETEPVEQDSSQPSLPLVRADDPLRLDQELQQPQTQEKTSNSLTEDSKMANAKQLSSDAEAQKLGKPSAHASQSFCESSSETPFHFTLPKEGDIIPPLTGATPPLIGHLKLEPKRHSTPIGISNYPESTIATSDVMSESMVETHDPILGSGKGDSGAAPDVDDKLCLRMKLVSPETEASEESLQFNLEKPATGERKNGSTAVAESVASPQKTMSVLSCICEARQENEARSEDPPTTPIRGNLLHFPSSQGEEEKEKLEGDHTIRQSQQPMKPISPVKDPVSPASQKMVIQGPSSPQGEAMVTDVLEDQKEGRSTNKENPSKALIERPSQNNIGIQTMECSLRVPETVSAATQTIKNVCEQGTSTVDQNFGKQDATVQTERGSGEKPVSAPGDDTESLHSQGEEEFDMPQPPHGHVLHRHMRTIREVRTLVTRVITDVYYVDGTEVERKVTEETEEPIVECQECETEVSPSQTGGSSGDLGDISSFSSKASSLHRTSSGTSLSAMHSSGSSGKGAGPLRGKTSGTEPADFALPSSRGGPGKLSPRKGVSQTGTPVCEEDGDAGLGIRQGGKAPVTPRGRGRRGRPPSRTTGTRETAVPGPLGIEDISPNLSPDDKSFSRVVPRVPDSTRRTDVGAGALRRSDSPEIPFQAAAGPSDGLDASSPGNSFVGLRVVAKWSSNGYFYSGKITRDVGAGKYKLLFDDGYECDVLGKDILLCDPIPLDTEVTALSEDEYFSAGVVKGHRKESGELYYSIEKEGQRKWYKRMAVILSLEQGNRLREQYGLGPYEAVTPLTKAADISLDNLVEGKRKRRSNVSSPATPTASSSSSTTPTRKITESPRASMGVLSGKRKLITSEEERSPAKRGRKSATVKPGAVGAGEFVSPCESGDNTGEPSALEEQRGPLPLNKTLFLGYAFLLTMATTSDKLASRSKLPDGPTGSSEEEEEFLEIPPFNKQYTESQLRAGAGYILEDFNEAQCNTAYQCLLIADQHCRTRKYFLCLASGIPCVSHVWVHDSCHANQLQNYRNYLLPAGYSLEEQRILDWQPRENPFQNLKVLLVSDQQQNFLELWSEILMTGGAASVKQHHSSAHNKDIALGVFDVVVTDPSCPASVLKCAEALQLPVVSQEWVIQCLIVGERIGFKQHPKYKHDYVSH
UniProt Q7L0Y3: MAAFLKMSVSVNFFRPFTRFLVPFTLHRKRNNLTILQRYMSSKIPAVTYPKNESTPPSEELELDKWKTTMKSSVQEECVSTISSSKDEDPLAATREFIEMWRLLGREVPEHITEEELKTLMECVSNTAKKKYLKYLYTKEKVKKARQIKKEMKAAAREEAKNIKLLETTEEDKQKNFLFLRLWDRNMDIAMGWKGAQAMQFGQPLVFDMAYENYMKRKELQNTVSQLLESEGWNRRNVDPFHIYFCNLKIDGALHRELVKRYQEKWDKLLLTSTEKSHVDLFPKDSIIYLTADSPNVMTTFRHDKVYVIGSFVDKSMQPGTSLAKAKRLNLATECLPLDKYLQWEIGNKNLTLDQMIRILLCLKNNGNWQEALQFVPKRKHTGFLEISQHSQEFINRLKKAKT
UniProt Q9H4I3: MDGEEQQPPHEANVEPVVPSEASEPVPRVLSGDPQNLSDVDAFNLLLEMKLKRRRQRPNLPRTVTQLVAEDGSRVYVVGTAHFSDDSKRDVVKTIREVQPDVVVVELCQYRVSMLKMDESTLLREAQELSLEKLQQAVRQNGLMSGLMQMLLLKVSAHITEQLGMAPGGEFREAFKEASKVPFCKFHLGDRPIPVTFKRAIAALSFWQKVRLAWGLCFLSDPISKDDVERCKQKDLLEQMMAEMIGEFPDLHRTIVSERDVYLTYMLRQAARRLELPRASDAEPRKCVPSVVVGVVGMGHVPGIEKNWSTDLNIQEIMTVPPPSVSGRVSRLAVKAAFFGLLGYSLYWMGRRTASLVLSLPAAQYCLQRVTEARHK
UniProt Q8NCE0: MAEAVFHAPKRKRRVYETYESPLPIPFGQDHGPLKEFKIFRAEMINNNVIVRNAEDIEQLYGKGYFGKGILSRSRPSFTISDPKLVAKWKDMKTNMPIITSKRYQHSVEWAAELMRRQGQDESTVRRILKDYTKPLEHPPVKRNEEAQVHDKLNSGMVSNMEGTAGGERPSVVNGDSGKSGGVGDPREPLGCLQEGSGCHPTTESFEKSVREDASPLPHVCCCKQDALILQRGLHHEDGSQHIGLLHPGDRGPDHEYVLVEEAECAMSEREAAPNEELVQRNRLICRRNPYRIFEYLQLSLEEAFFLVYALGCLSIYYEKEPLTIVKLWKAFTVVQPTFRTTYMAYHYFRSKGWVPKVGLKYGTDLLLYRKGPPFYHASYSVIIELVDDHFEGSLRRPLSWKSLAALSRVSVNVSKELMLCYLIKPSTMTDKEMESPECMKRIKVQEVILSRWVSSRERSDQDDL
UniProt Q96FX7: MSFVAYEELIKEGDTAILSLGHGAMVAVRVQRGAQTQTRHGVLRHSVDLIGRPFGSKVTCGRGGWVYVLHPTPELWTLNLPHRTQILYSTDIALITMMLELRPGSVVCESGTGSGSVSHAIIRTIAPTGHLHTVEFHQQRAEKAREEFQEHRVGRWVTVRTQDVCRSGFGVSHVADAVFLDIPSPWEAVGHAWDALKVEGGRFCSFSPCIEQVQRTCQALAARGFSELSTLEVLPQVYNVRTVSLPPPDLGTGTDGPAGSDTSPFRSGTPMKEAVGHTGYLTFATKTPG
UniProt Q9P0U1: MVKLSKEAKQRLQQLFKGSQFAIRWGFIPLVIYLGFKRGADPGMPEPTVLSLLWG
UniProt Q86SZ2: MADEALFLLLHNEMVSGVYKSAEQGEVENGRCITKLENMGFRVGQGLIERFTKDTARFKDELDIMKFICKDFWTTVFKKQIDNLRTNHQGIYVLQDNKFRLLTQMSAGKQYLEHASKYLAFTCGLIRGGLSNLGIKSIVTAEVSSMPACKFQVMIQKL
UniProt Q629K1: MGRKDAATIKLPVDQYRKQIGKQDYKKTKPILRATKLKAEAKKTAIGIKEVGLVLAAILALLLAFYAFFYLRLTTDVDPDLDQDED

log2 fold change, inactive:
TP53BP2 isoform 3 (UniProt Q13625) -0.03, TRIP11 (UniProt Q15643) -0.035, TPP2 (UniProt Q5VZU9) 0.107, TPK1 (UniProt Q9H3S4) 0, TRUB2 (UniProt O95900) -0.195, TRIM4 (UniProt Q9C037) 0.129, TNRC6B (UniProt Q9UPQ9) 0.018, TRAF7 (UniProt Q6Q0C0) -0.089, TRPM7 (UniProt Q96QT4) -0.098, TRIM24 (UniProt O15164) 0.078, TRAPPC1 (UniProt Q9Y5R8) 0.025, TRAPPC11 (UniProt Q7Z392) -0.03, TSEN34 (UniProt Q9BSV6) 0.017, TRPC4AP (UniProt Q8TEL6) -0.043, TP53BP1 isoform 2 (UniProt Q12888) -0.089, TNFRSF8 (UniProt P28908) 0.074, TRMT10C (UniProt Q7L0Y3) 0.018, TRABD (UniProt Q9H4I3) 0.198, TRIP10 isoform 2 (UniProt Q15642) 0.109, TSEN2 (UniProt Q8NCE0) 0.077, TRMT61A (UniProt Q96FX7) -0.192, TRIM44 (UniProt Q96DX7) -0.047, TOMM7 (UniProt Q9P0U1) -0.099, TSC2 (UniProt P49815) -0.039, TRAPPC6B (UniProt Q86SZ2) -0.003

Each target was assayed with COc1cc2ncnc(Nc3ccc(F)c(Cl)c3)c2cc1OCCCN1CCOCC1 [gefitinib] in the same assay as above.
Outline: as §1

log2 fold change, inactive:
TP53BP2 isoform 3 (UniProt Q13625) -0.06, TRIP11 (UniProt Q15643) -0.03, TPP2 (UniProt Q5VZU9) -0.036, TRIM4 (UniProt Q9C037) -0.155, TOM1L2 (UniProt Q6ZVM7) 0.028, TRIM23 (UniProt P36406) 0.012, TRIM24 (UniProt O15164) 0.197, TRAPPC1 (UniProt Q9Y5R8) 0.022, TRAPPC11 (UniProt Q7Z392) -0.012, TSEN34 (UniProt Q9BSV6) 0.009, TRPC4AP (UniProt Q8TEL6) 0.271, TP53BP1 isoform 2 (UniProt Q12888) -0.014, TNFRSF8 (UniProt P28908) 0.067, TRMT10C (UniProt Q7L0Y3) 0.039, TRIO (UniProt O75962) 0.042, TRABD (UniProt Q9H4I3) 0.149, TRIP10 isoform 2 (UniProt Q15642) 0.062, TSEN2 (UniProt Q8NCE0) 0.028, TRMT61A (UniProt Q96FX7) -0.051, TRIM44 (UniProt Q96DX7) -0.027, TOMM7 (UniProt Q9P0U1) 0.049, TRAPPC6B (UniProt Q86SZ2) 0.042

The targets below were run with COc1cccc2cc(-c3nc([C@H]4CC[C@H](C(=O)O)CC4)n4ncnc(N)c34)[nH]c12 in the same assay as above.
Outline: as §1

log2 fold change, inactive:
TRIP11 (UniProt Q15643) -0.001, TPP2 (UniProt Q5VZU9) -0.188, TOM1 (UniProt O60784) 0.094, TPK1 (UniProt Q9H3S4) 0.019, TRIM4 (UniProt Q9C037) -0.137, TREML2 (UniProt Q5T2D2) 0.005, TRAF7 (UniProt Q6Q0C0) -0.13, TRIM23 (UniProt P36406) 0.039, TRPM7 (UniProt Q96QT4) -0.081, TRIM24 (UniProt O15164) -0.021, TRAPPC1 (UniProt Q9Y5R8) 0.127, TRAPPC11 (UniProt Q7Z392) -0.019, TSEN34 (UniProt Q9BSV6) 0.043, TRPC4AP (UniProt Q8TEL6) 0.053, TP53BP1 isoform 2 (UniProt Q12888) -0.041, TNFRSF8 (UniProt P28908) 0, TRMT10C (UniProt Q7L0Y3) 0.005, TRIO (UniProt O75962) 0.001, TRPT1 isoform 4 (UniProt Q86TN4) -0.061, TRABD (UniProt Q9H4I3) -0.006, TRIP10 isoform 2 (UniProt Q15642) -0.09, TSEN2 (UniProt Q8NCE0) 0.114, TRMT61A (UniProt Q96FX7) -0.057, TRIM44 (UniProt Q96DX7) -0.033, TOMM7 (UniProt Q9P0U1) 0.087, TSC2 (UniProt P49815) 0.139, TRAPPC6B (UniProt Q86SZ2) 0.028, TRIQK (UniProt Q629K1) 0.106

From the supplement of paper PMC10849652
